Source: the supplement of paper PMC10849652
The other results are listed elsewhere or left out.

Chains of the proteins cited; added tags and fusions are not shown. Lines headed by an entry give the natural chain unless they say otherwise; changes in a name come on top.
UniProt P20073: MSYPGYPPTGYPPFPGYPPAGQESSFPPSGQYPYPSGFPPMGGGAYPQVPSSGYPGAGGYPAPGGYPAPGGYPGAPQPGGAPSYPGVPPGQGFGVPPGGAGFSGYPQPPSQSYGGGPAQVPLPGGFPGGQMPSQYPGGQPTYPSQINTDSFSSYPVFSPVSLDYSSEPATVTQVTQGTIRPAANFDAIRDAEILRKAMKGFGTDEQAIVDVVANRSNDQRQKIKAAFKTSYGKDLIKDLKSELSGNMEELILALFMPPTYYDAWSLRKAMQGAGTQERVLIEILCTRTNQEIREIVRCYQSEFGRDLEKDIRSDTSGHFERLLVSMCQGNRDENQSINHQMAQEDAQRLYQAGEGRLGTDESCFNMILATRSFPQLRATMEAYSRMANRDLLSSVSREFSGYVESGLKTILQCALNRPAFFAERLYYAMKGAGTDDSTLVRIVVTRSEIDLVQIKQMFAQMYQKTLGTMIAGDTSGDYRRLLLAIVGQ
UniProt Q6NS38: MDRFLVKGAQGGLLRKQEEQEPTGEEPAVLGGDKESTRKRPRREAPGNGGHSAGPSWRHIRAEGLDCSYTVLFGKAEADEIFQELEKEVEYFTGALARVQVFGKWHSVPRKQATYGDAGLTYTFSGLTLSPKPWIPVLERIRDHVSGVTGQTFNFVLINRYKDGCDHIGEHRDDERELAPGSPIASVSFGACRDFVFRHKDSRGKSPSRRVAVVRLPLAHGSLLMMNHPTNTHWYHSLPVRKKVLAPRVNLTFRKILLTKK
UniProt Q6ZTN6: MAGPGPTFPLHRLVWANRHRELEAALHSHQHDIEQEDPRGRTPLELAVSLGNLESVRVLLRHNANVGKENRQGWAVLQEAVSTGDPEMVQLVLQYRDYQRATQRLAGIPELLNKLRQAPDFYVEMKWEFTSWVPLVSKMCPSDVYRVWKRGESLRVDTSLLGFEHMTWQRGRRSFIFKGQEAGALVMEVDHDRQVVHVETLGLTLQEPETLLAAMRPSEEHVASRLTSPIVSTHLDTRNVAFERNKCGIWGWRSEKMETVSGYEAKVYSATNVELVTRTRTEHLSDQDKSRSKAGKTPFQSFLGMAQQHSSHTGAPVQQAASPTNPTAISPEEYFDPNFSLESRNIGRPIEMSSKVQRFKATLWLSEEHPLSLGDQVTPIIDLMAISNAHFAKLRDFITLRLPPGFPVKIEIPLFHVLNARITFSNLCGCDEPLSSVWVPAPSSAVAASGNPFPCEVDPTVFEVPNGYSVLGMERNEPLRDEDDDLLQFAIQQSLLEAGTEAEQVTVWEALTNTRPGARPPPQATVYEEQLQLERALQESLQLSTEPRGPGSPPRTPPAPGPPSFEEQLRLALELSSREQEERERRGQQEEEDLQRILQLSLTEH
UniProt P17707: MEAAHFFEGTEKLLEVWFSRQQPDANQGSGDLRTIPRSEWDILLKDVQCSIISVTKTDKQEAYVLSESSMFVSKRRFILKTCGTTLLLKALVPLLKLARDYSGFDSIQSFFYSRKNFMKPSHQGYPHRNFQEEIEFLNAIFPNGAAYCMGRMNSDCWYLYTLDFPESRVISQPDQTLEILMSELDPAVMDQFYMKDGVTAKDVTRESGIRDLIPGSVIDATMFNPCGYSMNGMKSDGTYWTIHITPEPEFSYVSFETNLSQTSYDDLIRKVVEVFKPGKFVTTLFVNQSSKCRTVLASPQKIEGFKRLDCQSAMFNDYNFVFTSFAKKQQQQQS
UniProt Q9BTT0: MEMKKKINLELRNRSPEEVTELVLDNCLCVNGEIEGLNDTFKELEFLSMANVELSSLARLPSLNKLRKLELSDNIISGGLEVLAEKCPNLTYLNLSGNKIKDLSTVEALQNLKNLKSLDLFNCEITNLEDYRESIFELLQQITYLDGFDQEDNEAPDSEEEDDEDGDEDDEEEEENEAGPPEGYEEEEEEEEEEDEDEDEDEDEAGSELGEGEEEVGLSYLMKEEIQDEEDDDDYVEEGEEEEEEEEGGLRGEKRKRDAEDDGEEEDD
UniProt Q8WVL7: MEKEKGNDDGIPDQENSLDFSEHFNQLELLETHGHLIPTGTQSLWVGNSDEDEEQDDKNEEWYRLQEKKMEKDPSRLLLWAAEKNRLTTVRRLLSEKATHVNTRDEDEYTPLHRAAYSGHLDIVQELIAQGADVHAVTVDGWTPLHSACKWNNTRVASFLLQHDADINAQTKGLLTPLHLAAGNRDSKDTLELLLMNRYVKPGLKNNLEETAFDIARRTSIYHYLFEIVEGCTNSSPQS
UniProt P07355, whole entry, looked up: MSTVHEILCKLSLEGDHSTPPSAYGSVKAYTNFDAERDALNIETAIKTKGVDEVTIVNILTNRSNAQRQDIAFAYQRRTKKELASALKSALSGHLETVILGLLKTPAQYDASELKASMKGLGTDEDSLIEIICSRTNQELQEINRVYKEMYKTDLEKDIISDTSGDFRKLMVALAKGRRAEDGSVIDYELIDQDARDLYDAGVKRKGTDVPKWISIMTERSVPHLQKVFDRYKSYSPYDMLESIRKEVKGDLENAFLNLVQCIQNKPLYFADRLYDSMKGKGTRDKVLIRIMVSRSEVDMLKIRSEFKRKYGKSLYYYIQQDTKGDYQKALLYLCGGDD
UniProt Q8IZ83: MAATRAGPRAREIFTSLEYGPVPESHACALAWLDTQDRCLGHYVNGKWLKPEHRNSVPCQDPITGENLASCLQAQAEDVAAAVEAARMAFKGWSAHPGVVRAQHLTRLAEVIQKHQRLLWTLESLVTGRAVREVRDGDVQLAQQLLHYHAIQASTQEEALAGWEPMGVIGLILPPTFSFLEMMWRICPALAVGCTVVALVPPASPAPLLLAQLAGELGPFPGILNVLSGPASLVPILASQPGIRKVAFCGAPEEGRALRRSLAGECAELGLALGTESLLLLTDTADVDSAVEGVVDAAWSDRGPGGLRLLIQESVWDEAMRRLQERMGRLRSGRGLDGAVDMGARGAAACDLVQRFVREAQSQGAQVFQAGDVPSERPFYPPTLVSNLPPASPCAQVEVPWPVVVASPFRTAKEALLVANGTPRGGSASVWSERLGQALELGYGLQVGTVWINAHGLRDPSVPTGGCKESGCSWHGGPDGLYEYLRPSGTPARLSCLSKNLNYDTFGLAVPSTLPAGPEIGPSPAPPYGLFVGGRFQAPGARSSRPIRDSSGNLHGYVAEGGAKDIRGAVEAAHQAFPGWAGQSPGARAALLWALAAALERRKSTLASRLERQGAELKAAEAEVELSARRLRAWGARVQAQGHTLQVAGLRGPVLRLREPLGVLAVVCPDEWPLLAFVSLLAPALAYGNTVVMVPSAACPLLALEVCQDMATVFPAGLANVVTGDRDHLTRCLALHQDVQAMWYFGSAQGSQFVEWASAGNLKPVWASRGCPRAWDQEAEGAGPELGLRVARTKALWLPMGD
UniProt Q8IV38: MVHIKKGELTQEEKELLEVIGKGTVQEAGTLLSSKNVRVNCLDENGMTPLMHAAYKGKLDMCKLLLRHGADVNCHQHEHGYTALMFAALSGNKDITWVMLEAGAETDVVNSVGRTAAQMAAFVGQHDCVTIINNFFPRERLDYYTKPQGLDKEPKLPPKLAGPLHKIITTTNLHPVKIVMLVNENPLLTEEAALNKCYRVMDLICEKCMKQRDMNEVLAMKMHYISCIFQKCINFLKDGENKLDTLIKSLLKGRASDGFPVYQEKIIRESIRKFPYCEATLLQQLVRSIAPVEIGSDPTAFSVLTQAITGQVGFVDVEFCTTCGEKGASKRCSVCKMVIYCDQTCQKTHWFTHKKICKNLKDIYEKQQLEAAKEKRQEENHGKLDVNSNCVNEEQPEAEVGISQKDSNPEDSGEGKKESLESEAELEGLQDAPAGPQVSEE
UniProt O43747: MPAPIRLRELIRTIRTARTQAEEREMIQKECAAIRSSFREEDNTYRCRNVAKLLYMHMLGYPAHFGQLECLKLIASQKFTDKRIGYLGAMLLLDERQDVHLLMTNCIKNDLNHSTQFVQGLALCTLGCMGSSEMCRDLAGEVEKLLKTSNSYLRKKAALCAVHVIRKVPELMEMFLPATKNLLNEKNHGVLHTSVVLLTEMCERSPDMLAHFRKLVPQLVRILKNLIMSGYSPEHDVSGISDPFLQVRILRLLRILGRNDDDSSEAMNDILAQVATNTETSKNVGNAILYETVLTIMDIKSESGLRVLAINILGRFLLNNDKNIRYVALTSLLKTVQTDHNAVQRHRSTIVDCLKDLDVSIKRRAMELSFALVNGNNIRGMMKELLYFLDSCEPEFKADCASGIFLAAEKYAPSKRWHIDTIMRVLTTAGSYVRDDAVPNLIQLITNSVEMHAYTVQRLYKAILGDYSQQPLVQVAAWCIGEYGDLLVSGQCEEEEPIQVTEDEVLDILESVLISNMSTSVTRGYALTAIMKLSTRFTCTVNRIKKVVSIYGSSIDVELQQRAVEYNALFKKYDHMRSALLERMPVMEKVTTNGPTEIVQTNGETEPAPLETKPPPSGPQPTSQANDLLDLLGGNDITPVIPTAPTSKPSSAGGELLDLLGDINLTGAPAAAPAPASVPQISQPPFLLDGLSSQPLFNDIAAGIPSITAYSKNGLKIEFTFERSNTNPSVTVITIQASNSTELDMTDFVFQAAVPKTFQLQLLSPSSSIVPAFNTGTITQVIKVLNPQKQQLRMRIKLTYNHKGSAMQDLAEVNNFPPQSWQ
UniProt P05091: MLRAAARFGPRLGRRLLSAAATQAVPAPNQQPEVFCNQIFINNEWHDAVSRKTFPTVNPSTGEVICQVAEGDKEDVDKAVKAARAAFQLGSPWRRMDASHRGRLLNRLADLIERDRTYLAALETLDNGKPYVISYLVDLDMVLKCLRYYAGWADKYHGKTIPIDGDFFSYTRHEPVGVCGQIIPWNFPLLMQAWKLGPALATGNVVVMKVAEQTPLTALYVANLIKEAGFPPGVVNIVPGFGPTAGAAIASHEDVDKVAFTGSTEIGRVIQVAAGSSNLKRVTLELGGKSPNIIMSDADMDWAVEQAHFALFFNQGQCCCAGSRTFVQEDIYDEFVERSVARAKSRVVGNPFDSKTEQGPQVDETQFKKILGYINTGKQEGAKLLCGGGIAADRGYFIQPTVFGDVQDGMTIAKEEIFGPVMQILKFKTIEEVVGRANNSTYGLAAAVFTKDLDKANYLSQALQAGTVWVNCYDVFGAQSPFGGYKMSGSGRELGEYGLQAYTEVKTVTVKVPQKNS
UniProt P56377: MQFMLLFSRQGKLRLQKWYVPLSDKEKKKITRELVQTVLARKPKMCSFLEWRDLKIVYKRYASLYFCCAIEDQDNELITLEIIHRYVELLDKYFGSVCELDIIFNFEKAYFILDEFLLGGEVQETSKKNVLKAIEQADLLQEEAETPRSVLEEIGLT
UniProt P08133: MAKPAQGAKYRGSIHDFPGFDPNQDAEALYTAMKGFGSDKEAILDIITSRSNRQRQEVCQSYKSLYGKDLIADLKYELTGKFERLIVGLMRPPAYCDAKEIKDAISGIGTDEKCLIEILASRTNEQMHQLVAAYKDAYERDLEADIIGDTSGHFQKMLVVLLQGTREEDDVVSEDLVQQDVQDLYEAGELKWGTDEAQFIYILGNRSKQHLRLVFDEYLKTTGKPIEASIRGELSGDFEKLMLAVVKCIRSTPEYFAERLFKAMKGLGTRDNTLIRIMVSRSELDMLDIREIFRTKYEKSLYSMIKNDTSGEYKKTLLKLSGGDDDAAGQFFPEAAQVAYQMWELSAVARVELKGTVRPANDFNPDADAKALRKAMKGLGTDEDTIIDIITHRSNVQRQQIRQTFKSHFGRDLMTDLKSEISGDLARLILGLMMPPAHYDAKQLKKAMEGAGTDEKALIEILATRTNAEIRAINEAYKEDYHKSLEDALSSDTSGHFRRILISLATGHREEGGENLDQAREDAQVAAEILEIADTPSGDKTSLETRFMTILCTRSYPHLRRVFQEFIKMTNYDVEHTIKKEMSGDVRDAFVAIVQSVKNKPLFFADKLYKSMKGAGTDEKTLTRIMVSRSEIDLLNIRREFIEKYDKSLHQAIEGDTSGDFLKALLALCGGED
UniProt Q8N6D5: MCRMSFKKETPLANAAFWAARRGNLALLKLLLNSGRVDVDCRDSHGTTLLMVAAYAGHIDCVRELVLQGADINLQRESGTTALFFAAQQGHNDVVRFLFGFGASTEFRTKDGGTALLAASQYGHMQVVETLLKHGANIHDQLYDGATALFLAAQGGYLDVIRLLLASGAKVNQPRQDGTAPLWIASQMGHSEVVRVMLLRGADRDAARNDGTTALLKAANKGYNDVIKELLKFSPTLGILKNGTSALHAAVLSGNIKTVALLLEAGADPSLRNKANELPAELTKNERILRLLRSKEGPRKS

Each target was assayed with O=C1NC(=O)C(c2cnc3ccccn23)=C1c1cn2c3c(cc(F)cc13)CN(C(=O)N1CCCCC1)CC2 (assay: log2 fold change, soluble protein after heating vs DMSO (PISA); higher = thermal stabilisation; K562 lysate, 10 uM; active = over 0.2 and 3.5 SD of the protein, either way, in both replicates (recomputed)).
How it was run: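 To prepare the extract, K562 pellets were dounce-homogenised in PBS pH 7.4 with 1 mM MgCl2, giving crude material at 1 mg/mL protein. This was treated with 10 μM compound for 30 min, then heated in aliquots for 3 min over 48°C-58°C before pooling and addition of NP-40 to 0.5% at 4°C. Centrifugation at 21,000xg for 90 min left soluble protein in the supernatant, which TMTpro 16plex LC-MS/MS quantified with equalised channel sums. Results are log-two fold changes in thermal stability compared with solvent controls, from duplicates.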

log2 fold change, inactive:
ALDH4A1 (UniProt P30038) 0.006
ALG8 (UniProt Q9BVK2) -0.008
AP3M1 (UniProt Q9Y2T2) 0
ALS2 (UniProt Q96Q42) 0.024
ANXA7 (UniProt P20073) 0.006
ALKBH2 (UniProt Q6NS38) -0.065
ANKRD13D isoform 3 (UniProt Q6ZTN6) -0.076
AMD1 (UniProt P17707) 0.499
AKT1S1 isoform 3 (UniProt Q96B36) -0.08
ANO6 (UniProt Q4KMQ2) -0.001
ANAPC2 (UniProt Q9UJX6) 0.005
ANP32E (UniProt Q9BTT0) -0.011
ANKRD49 (UniProt Q8WVL7) -0.011
AP2S1 (UniProt P53680) -0.018
ANXA2 isoform 2 (UniProt P07355) 0.003
ANKRD28 (UniProt O15084) 0.015
ALDH16A1 (UniProt Q8IZ83) -0.044
ANKMY2 (UniProt Q8IV38) -0.002
AP1G1 isoform 2 (UniProt O43747) -0.012
ANKRD52 (UniProt Q8NB46) -0.023
ALDH2 (UniProt P05091) 0.019
ANK3 (UniProt Q12955) 0.008
AP1S2 isoform 2 (UniProt P56377) -0.101
ANXA6 (UniProt P08133) -0.024
ALAD (UniProt P13716) 0
AKT2 (UniProt P31751) -0.019
ANKS1A (UniProt Q92625) 0.002
ANO10 (UniProt Q9NW15) -0.067
ANKRD29 (UniProt Q8N6D5) 0.172
ALKBH8 isoform 4 (UniProt Q96BT7) -0.053
ALDH1A2 (UniProt O94788) -0.012
ANKHD1 isoform 6 (UniProt Q8IWZ3) 0.017
ALDOA (UniProt P04075) -0.01
AP2M1 (UniProt Q96CW1) 0.022

2 records drawn at random from those above, as already listed:
log2 fold change, inactive:
ANKRD52 (UniProt Q8NB46) -0.023
AKT2 (UniProt P31751) -0.019
